This test has as its target AcerOr1 (Apis cerana cerana, UniProt G8HAQ8). Particulars: Sf9 cells expressing AcerOr1, Ca2+ imaging.

Protein sequences, listed by entry. Tags and fused reporters are not part of them. Residues count along the entry.
UniProt G8HAQ8, 1-400: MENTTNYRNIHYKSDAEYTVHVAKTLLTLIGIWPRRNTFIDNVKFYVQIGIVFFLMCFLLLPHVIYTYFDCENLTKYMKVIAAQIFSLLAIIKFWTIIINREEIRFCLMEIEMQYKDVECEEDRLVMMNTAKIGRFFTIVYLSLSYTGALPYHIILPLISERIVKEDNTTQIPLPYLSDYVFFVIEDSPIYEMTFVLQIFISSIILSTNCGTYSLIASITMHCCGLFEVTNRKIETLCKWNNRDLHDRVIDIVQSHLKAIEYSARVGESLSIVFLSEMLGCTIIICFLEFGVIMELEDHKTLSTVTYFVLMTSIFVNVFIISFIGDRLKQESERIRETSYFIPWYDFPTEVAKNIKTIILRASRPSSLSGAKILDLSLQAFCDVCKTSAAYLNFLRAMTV

We go through 1 molecule from article PMC6001824, “Expressional and functional interactions of two Apis cerana cerana olfactory receptors” (PeerJ, 2018).

Certain results were filed several times, with different values. Only these are listed. The source may hold further records. Results that share an entry differ for a reason that is not stated; some may be repeats, others may stem from another dose, organism or construct than stated.

As to `CCc1ccc(NC(=O)CSc2nnc(-c3cccnc3)n2CC)cc1` [VUAA1, N-(4-ethylphenyl)-2-((4-ethyl-5-(3-pyridinyl)-4H-1,2,4-triazol-3-yl)thio) acetamide], the EC50 was 10^−7 to 10^−8 M and 151 nM.
